Assay [1] has as its target monkey CEACAM5 (monkey). Nature of the assay: ELISA on coated protein. (In general: In an ELISA, binding on a coated surface is turned into a signal by an enzyme label.)
For assay [2], the target named is monkey CEACAM6 (monkey). Nature of the assay: ELISA on coated protein.
For assay [3], the target named is monkey CEACAM5 (monkey). As to the kind of experiment: ELISA on coated protein, OD450.
Assay [4] concerns the target monkey CEACAM6 (monkey). As to the kind of experiment: ELISA on coated protein, OD450.

Results are given in words; binding and its absence hold for the method and conditions named. Binding calls can cover weak binding; strength is not graded here.

B1: Antibody 15 (antibody, V domains shown)
VH: QVQLQQPGAELVKPGASVTLSCKASGYTFTSYWINWVKQRPGQGLEWIGNIYPYTSSSNYNEKFKGKATLTVDTSSNTAYMQLSGLTSDDSAVYFCARKGNIYYSYESYPLDFWGQGTSVTVSS
VL: DIQMTQSSSSFSVSLGDRVTITCKASEDIYKQIGWYQQKPGNAPRLLIAGATSLETGVPSRFSGSGSGKDYMLNITSLQTEDVGSYYCQQYWSPPFTFGSGTKLEIK
With B1, the binding result in assay [1], in assay [2], in assay [3] and in assay [4] was “binds” in each case.

B2: Antibody 1 (antibody, V domains shown)
VH: QVQLKQSGAELVRPGASVKLSCKTSGYIFTSYWIHWVKQRSGQGLEWIARIYPGTGSTYYNEKFKGKATLTADKSSSTAYMQLSSLKSEDSAVYFCARSGFPLTTVPLDYWGQGTTLTVSS
VL: DVQITQSPSYLAASPGETITINCRASKSISKYLAWYQEKPGKTNKLLIYSGSTLQSGIPSRFSGSGSGTDFTLTISSLEPEDFAMYYCQQHNEYPFTFGSGTKLEIK
With B2, the binding entry in assay [2] and in assay [4] was “binds” in each case.

B3: Antibody 14 (antibody, V domains shown)
VH: EVQLVETGGGLVQPKGSLKLSCAASGFSFNTNAMNWVRQAPGKGLEWVARIRSKSNNYATYYADSVKDRFTISRDDSQSMLYLQMNNLKTEDTAMYYCVSFLSLMDYWGQGTSVTVSS
VL: QIVLTQSPAIMSASPGEKVTMTCSASSSISYMHWYQQKPGTSPKRWIYDTSKLASGVPARFSGSGSGTSYSLTISSMEAEDAATYYCHQRSSYPWTFGGGTKLEIK
On to B3, for which the binding result in assay [1], in assay [2], in assay [3] and in assay [4] was “binds” each time.

B4: Antibody 12 (antibody, V domains shown)
VH: EVKLVESGGGLVQPGGSLSLSCAVSGFIFTDYFMSWVRQPPGKTLEWLALIRNKANGYIIEYSESVKGRFTISRGNSQSIFYLQMNALRTEDSATYYCARDIGIRWNFDVWGAGTTVTVSS
VL: QIVLTQSPAIMSASPGEKVTMTCSATSRVTYMHWYQQKSGTSPKRWIYATSTLASGVPARFSGSGSGTSYSLTISSMEAEDAATYYCQQWSYNPPTFGSGTKLEIK
As to B4, the binding entry in assay [2] and in assay [4] was “binds” each time.

B5: Antibody 13 (antibody, V domains shown)
VH: EVKLVESGGGLVQPGGSLSLSCTASGFTLTDYYMSWVRQPPGRALEWLALIRNKVNGYTIEYSASVKGRFTISRDNSQSILYLQMNALRAEDSATYYCARDIGIRWYFDVWGAGTTVTVSS
VL: QIVLSQSPAILSASPGEKVTMTCRASSSVSYMHWYQQKPGSSPKPWIYATSNLASGVPARFSGSGSGTSYSLTISRMEAEDAATYYCQQWSGNPPTFGGGTKLEIK
In the case of B5, the binding result in assay [2] and in assay [4] was “binds” each time.

The record behind these values is patent publication US20250250335A1.
